Experimental data reported in PubChem BioAssay AID624246 (National Center for Advancing Translational Sciences (NCATS), 2012).
Among all 370,000 compounds or so, about 100 (0.027%) were called active. Inconclusive means that the source gave no clear call. Such entries were picked first, then a sample of the others. The call rests on the fitted dose curve; in most records, active means well fitted inhibition curve with a large enough effect in the polarisation, with a control signal flat; inconclusive means small, poorly fitted or top-dose-only effect, or effect the other way, or a change in a side signal; inactive means no such curve, though single readings can be large or run the other way; the % refers to the polarisation. Where the call is inconclusive, the potency comes from a doubtful curve fit. “Side channel” marks fits to a control or component signal instead of the main read-out.

Chains of the proteins cited; added tags and fusions are not shown. Lines headed by an entry give the natural chain unless they say otherwise; changes in a name come on top.
UniProt P11308: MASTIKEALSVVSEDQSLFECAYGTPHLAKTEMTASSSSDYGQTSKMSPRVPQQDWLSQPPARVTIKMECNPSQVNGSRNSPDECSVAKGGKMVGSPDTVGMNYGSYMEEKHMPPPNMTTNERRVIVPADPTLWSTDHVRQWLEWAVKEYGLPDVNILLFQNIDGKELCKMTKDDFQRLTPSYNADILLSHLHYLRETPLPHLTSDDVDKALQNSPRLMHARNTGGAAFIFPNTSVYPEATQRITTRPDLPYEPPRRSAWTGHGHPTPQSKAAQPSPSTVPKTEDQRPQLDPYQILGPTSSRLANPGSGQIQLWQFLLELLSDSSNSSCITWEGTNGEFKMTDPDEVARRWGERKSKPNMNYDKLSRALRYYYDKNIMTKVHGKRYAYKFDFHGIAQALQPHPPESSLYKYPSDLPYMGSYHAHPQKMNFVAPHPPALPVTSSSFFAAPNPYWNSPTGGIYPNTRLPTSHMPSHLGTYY

molecular target: Transcriptional regulator ERG (Homo sapiens) (UniProt P11308); test: qHTS for Small Molecule Inhibitors of the ERG Ets/DNA interaction; details: fluorescence polarization, His-ERG Ets domain / labelled DNA; FP activity, negative = inhibition: at 76.9 µM (top of the series); on FP activity, negative = inhibition: % of control where 0% means no effect
Procedure, shortened: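 His-tagged ERG Ets domain (1 uM in the protein solution; 300mM KCl, 50mM Tris-HCl, 1mM EDTA, 1mM DTT, pH 7.5) received compound, then a probe mix of 5 nM fluorescein-DNA and 100nM Texas-615-DNA. Fluorescence polarization was read for both dyes.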
Potency means the concentration at half of the fitted maximal effect.

Structure (SMILES)	FP activity, negative = inhibition	Potency
Cc1ccc(N(C(=O)Nc2ccccc2)C2=NCC(C)S2)cc1 (configuration not stated)	inactive: -4.46%	
CCOc1ccc(NC(=O)c2sc3nc4c(cc3c2N)CN(Cc2ccccc2)CC4)cc1		inconclusive: 11.2 µM [fluorescent, side channel, single point]
CCOc1cc(NC(=S)NCC(C)C)c(OCC)cc1NC(=O)c1ccco1		inconclusive: 5.62 µM [inhibitor, single point]
O=C(CCn1c(=S)oc2ccccc21)Nc1ccccc1F		inconclusive: 1 µM [quencher, side channel, full curve, poor fit]
CCOc1cc(C2NC(=O)c3c(sc4c3CCN(C)C4)N2)ccc1OC(=O)c1ccccc1Cl (configuration not stated)		inconclusive: 44.7 µM [fluorescent, side channel, single point]
Cc1ccc(N(CC(=O)NC2CCCC2)C(=O)CNC(=O)c2cccs2)c(C)c1		inconclusive: 11.2 µM [inhibitor, single point]
CN(c1ccccc1)S(=O)(=O)c1ccc(C(=O)Nc2nnc(-c3ccco3)o2)cc1	inactive: 11.8%	
COc1cc(/C=C2/SC(=S)N(Cc3ccccc3)C2=O)cc(OC)c1O		inconclusive: 50.1 µM [inhibitor, single point]
O=C(/C=C/c1ccccc1)c1ccc2ccccc2c1	inactive: 4.8%	
Cc1ccc(OCC(=O)N(Cc2ccco2)Cc2ccco2)cc1C		inconclusive: 3.16 µM [quencher, side channel, partial curve, poor fit]
Cc1ccc2c(c1)N(CC(=O)NC1CCCc3ccccc31)C(=O)CO2 (configuration not stated)		inconclusive: 31.6 µM [inhibitor, partial curve, poor fit]
Cc1ccc(C(=O)NC(=S)Nc2ccc3c(c2)OCCO3)c(C)c1	inactive: -7.3%	
CC(=O)C1=C(O)C(=O)N(c2nccs2)C1c1ccccc1 (configuration not stated)		inconclusive: 39.8 µM [inhibitor, partial curve, poor fit]
CCOC(=O)c1ccc(NC(=O)c2cn(-c3ccccc3)nc2-c2ccc(OC)c(OC)c2)cc1		inconclusive: 100 µM [inhibitor, single point]
COc1ccc(-c2nn(-c3ccccc3)cc2/C=N/NC(=O)c2ccc(Br)o2)cc1		inconclusive: 31.6 µM [quencher, side channel, single point]
CC1(C)CC(=O)C2=C(C1)N1CCCCC1CC2=O (configuration not stated)	inactive: -2.29%	
Cc1cc(C)cc(C(=O)n2cnnc2N)c1	inactive: 4.72%	
CC1(C)CC(=O)C(C(O)c2ccccc2)C(C)(C)N1 (configuration not stated)		inconclusive: 11.2 µM [inhibitor, single point]
COc1ccc(CCNC(=O)CSc2n[nH]c(N)n2)cc1		inconclusive: 3.98 µM [inhibitor, partial curve, poor fit]
CCOc1ccccc1N1CCN(CC(=O)c2c(N)n(C)c(=O)n(C)c2=O)CC1		inconclusive: 31.6 µM [inhibitor, partial curve, poor fit]
CN(C)c1ccc(-n2cccc2)cc1		inconclusive: 31.6 µM [inhibitor, single point]
O=C(CCC1N=C2c3ccccc3N=C(SCc3ccc(Cl)cc3)N2C1=O)NC1CCCCC1 (configuration not stated)	inactive: -0.58%	
Cc1ccccc1C(=O)n1nc(-c2cccnc2)nc1NCc1ccc(F)cc1	inactive: 0.729%	

Structure (SMILES)	FP activity, negative = inhibition	Potency
O=C(c1ccc(CS(=O)c2ccccc2Cl)o1)N1CCN(c2ccccn2)CC1 (configuration not stated)		inconclusive: 2.51 µM [inhibitor, partial curve, poor fit]
CC(=O)OCC(=O)C1=CCC2C3CCC4=CC(=O)C=CC4(C)C3(F)C(OC(C)=O)CC12C (configuration not stated)		inconclusive: 50.1 µM [inhibitor, single point]
C=CCN1C(=O)/C(=C2/Sc3ccccc3N2CCCS(=O)(=O)O)SC1=S		inconclusive: 39.8 µM [quencher, side channel, single point]
CCSC(=Nc1ccccc1)N1CCOCC1		inconclusive: 35.5 µM [quencher, side channel, partial curve, poor fit]
O=C(CCC(=O)Nc1ccccc1)N/N=C/C=C/c1ccccc1		inconclusive: 31.6 µM [quencher, side channel, partial curve, poor fit]
CCOC(=O)CC(=O)CSc1nc(CC)c(C)cc1C#N	inactive: -2.26%	
CSCC(=O)NC1CCCc2c1cnn2-c1ccc(C)c(C)c1 (configuration not stated)		inconclusive: 50.1 µM [inhibitor, single point]
CCN(CC)S(=O)(=O)c1cccc(-c2nc3n(n2)Cc2ccccc2-3)c1		inconclusive: 2.24 µM [inhibitor, full curve, poor fit]
Cc1cc(Cl)ccc1C1=CC(=O)C[C@H](c2ccc(F)cc2)C1		inconclusive: 5.62 µM [inhibitor, full curve, poor fit]
C/C(=N\N=C1\NC(=O)C(CC(=O)Nc2ccc(C)c(Cl)c2)S1)C(C)C (configuration not stated)		inconclusive: 7.94 µM [quencher, side channel, full curve]
Cc1ccc(C)c(N/N=C2\CCCNC2=O)c1	inactive: -0.427%	
CCOC(=O)N1CCN(C(=O)COC(=O)c2cccc(S(C)(=O)=O)c2)CC1		inconclusive: 7.08 µM [inhibitor, partial curve, poor fit]
O=C(CN1CCOCC1)NNC(=S)Nc1ccccc1		inconclusive: 3.16 µM [inhibitor, partial curve, poor fit]
CCCNC(=O)C1CCC(Cn2c(=O)c3sccc3n(CC(=O)Nc3ccccc3C)c2=O)CC1 (configuration not stated)	inactive: 1.89%	
COCCN(CCOC)Cc1c(O)ccc2c1O/C(=C\c1ccco1)C2=O		inconclusive: 6.31 µM [inhibitor, partial curve, poor fit]
COC(=O)c1c(NC(=O)CN2CCC3(O)CCCCC3C2c2cc(OC)ccc2OC)sc(C)c1C (configuration not stated)	inactive: 5.41%	
COc1ccccc1-n1c(C)nnc1SCC(=O)Nc1cc(C)cc(C)c1	inactive: -4.79%	
Cc1ccc(OCC(=O)Nc2ccc3nc(Nc4cccc(Cl)c4)cc(C)c3c2)cc1	inactive: -4.25%	
CCOC(=O)c1c(CC(C)C)csc1/N=C/C1C(=O)CCCC1=O		inconclusive: 20 µM [fluorescent, side channel, partial curve, poor fit]
COc1cccc(-n2nc3c(=S)[nH]nc(C)c3c2C)c1		inconclusive: 44.7 µM [inhibitor, single point]
Cc1ccc(CNC(=O)c2sc3nc(-c4ccc(F)cc4)ccc3c2N)cc1		inconclusive: 100 µM [inhibitor, single point]
O=C(COc1ccccc1)Nc1ccc(Cl)cn1	inactive: -6.72%	
Cc1[nH]n(C(N)=S)c(=O)c1N=Nc1cc(-c2ccc(Br)cc2)[nH]n1	inactive: 0.659%	

Structure (SMILES)	FP activity, negative = inhibition	Potency
Cn1c(SCc2nnc(-c3ccccc3)o2)nc2ccccc21		inconclusive: 5.01 µM [inhibitor, partial curve, poor fit]
CNC(=O)C(=O)NCCN1CCN(C(=O)c2ccc([N+](=O)[O-])cc2)CC1		inconclusive: 31.6 µM [inhibitor, partial curve, poor fit]
CCCN1C(=O)/C(=C/c2c(N3CCNC(=O)C3CC(=O)OCC)nc3c(C)cccn3c2=O)SC1=S (configuration not stated)	inactive: 52.4%	
CCN(CC)CCN1C(=O)C(O)=C(C(C)=O)C1c1ccccc1[N+](=O)[O-] (configuration not stated)		inconclusive: 39.8 µM [inhibitor, partial curve, poor fit]
O=C(NCCCN1CCCCC1)c1ccc2c(c1)sc1nc(-c3ccc(F)cc3)cn12	inactive: -7.28%	
Cc1c(C(=O)NC(Cc2ccccc2)c2nc3ccccc3[nH]2)cccc1[N+](=O)[O-] (configuration not stated)	inactive: -15.4%	
CCOc1ccc(Nc2cc(C)nc3ccc(C)cc23)cc1	inactive: 6.06%	
COc1ccc(CC(=O)Nc2ccc(C(=O)Nc3ccccc3C(=O)O)cc2)cc1OC	inactive: 6.21%	
CC1=C([N+](=O)[O-])C(c2cccc(Br)c2)C2=C(N1)c1ccccc1C2=O (configuration not stated)		inconclusive: 1.12 µM [fluorescent, side channel, partial curve, poor fit]
N#Cc1ccc(OCC(=O)OCC(=O)c2ccccc2)cc1	inactive: 0.354%	
CCOC(=O)c1cnc2c(ccc3ccccc32)c1Nc1ccc(OC)cc1OC		inconclusive: 3.98 µM [quencher, side channel, partial curve, poor fit]
CSCC(=O)Nc1cc(C)on1		inconclusive: 28.2 µM [quencher, side channel, partial curve, poor fit]
CCCC(=O)Nc1ccc(C(=O)Nc2nnc(COCC)s2)cc1		inconclusive: 79.4 µM [inhibitor, single point]
COc1cc(C2CC(=O)N(CC(=O)Nc3ccccc3F)c3ccccc3S2)cc(OC)c1OC (configuration not stated)	inactive: 1.4%	
CCc1ccc(-c2cc(C(F)(F)F)n3nc(C(=O)Nc4cnn(Cc5ccc(C)cc5)c4)cc3n2)s1		inconclusive: 63.1 µM [inhibitor, single point]
COc1cc(OC)c(OC)cc1/C=N/NC(=O)c1cccc(S(=O)(=O)N2CCOCC2)c1		inconclusive: 12.6 µM [inhibitor, partial curve, poor fit]
O=C(c1ccco1)N(Cc1ccc2c(c1)OCO2)Cc1cc2cc3c(cc2[nH]c1=O)OCO3		inconclusive: 11.2 µM [inhibitor, single point]
CCc1nc2ccccc2c(C(=O)OCc2nnc(-c3ccccc3)o2)c1C	inactive: -1.42%	
CCNC(=S)N/N=C/c1ccc(OCC(=O)Nc2ccc(C)cc2)cc1	inactive: -0.965%	
Cc1ccc(-c2n[nH]c3c2C(c2ccccc2)N(c2ccc(C(=O)O)cc2)C3=O)cc1 (configuration not stated)	inactive: 8.77%	
O=C(NC(=S)NNC(=O)c1ccccc1O)c1cccc([N+](=O)[O-])c1		inconclusive: 50.1 µM [inhibitor, single point]

Reprinted at random: 2 entries already listed
Structure (SMILES)	FP activity, negative = inhibition	Potency
CCCC(=O)Nc1ccc(C(=O)Nc2nnc(COCC)s2)cc1		inconclusive: 79.4 µM [inhibitor, single point]
COc1cc(C2CC(=O)N(CC(=O)Nc3ccccc3F)c3ccccc3S2)cc(OC)c1OC (configuration not stated)	inactive: 1.4%	
